Results: the supplement of paper PMC11732987, “Enantioselective OTUD7B fragment discovery through chemoproteomics screening and high-throughput optimisation” (Communications Chemistry, 2025)
The other results are listed elsewhere or left out. The data scatter; read single values as rough.

Sequences of proteins named here, by UniProt entry; tags and fusion partners are left off. A change or cut given only in a name is not applied to a line headed by its entry.
UniProt O14802: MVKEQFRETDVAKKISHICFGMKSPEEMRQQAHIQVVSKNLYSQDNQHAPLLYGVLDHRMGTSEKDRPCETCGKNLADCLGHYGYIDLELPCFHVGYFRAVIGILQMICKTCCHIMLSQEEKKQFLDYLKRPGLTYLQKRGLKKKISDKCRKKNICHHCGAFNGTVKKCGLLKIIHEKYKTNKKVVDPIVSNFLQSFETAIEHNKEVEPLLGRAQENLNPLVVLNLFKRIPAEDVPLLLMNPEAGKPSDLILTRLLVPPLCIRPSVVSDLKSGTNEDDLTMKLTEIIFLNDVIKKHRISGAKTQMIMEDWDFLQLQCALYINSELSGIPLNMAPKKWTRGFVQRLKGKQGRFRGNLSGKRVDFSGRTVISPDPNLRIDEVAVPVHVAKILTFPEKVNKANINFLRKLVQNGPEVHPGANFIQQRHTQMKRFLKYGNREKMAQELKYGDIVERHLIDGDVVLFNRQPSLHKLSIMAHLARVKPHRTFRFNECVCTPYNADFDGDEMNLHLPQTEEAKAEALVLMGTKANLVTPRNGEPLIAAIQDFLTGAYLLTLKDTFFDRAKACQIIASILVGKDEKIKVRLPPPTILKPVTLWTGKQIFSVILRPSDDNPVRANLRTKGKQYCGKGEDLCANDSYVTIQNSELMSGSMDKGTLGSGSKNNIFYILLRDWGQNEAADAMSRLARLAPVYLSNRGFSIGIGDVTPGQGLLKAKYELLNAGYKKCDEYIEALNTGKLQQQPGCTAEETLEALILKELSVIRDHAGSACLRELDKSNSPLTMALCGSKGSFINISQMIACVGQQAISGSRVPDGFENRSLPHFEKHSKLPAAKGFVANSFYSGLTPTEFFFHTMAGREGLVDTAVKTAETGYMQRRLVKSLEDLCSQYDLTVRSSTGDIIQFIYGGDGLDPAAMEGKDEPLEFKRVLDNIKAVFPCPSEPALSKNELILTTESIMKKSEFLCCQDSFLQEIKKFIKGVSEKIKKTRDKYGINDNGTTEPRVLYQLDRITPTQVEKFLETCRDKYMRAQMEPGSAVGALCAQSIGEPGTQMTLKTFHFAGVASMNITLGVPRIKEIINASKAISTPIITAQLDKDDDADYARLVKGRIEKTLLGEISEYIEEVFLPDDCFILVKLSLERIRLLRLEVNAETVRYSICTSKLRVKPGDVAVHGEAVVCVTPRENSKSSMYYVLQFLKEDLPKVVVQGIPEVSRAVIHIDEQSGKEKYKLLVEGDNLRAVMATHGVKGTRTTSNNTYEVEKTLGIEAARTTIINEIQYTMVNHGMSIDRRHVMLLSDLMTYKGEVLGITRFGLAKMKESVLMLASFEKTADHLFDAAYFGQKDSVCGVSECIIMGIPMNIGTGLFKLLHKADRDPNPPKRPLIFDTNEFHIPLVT

molecular target: T1, POLR3A C1037 (UniProt O14802); assay: log2 mean competition ratio of IA-DTB cysteine labelling (DMSO/compound) (log2 ratio); higher = stronger cysteine engagement by compound; settings: 50 µM; treatment time: 4 h; cell line lysate: HEK293T
T1 sequence (whole entry): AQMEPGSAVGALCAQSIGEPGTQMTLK
Description: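 IA-DTB competitive cysteine chemoproteomics in HEK293T RIPA lysate. Lysates were treated with compound 29 or 30 at 50 or 200 µM for 4 h, then IA-DTB (500 µM, 1 h), trypsin-digested, NeutrAvidin-enriched and analysed by diaPASEF. Competition ratio = intensity DMSO / intensity compound (n=4 treated, n=64 DMSO); binding: mean log2 CR ≥ 1 and p ≤ 0.05 plus QC filters. Target is the cysteine site.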

Compound	log2 mean competition ratio
O=C(CCl)N[C@H]1CCCc2ccccc21	0.317
O=C(CCl)N[C@@H]1CCCc2ccccc21	0.307

same assay, conditions: 200 µM; treatment time: 4 h; cell line lysate: HEK293T

Compound	log2 mean competition ratio
O=C(CCl)N[C@H]1CCCc2ccccc21	-0.286
O=C(CCl)N[C@@H]1CCCc2ccccc21	-0.19
